## Screening data

Source: PubChem BioAssay AID1963591 (Tox21, 2024).

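HEK293T cells with a CRE beta-lactamase reporter, where the FRET ratio shows how compounds affect cAMP-driven signaling over roughly 3 hours. Each compound was run as a concentration series, mostly reaching a top of 92.4 µM. Fitted potency from the dose curve; a lower value means a more potent compound. Calls come from the whole dose curve: active means a well-fitted inhibition curve with enough effect in repeat runs, inconclusive means weak, mixed or opposite-direction curves, and inactive means a flat curve.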

Values are in µM. Every entry below has the call inconclusive. Only part of the assay is shown, chiefly results filed as inconclusive. Potencies fitted to partial, single-point or poorly fitting curves are rough. Some entries filed as inconclusive have a full curve. The first word of each remark tells which way the curve ran; it can be opposite to the aim of the assay.

structure	potency (µM)	curve
CC1(C)CC/C(=C/c2ccc(Cl)cc2)C1(O)Cn1cncn1 (stereo unspecified)	0.0036	falling, full curve, poor fit
C=CCOC(=O)c1ccccc1N	34.59	activator, full curve
O=C1C(Cl)C(CCl)CN1c1cccc(C(F)(F)F)c1 (stereo unspecified)	43.28	activator, partial curve, poor fit
O=C(O)CCCCCCCCCCCC(=O)O	40.32	fluorescent, partial curve
CCCCCCCCCCCC(=O)NCCCN(C)C	30.64	full curve
COc1ccc(N)cc1N	31.61	rising, full curve
CCN(CC)c1ccc(C(=O)c2ccccc2C(=O)O)c(O)c1	7.17	fluorescent, full curve
Cc1cccc(C)c1OCC(C)N (stereo unspecified)	0.0007	-
CC(=O)Oc1ccc(C(c2ccc(OC(C)=O)cc2)c2ccccn2)cc1	7.498	fluorescent, full curve, poor fit
C[C@@H]1O[C@@H](O[C@@H]2C=C3CC[C@@H]4[C@H](CC[C@]5(C)[C@@H](c6ccc(=O)oc6)CC[C@]45O)[C@@]3(C)CC2)[C@H](O)[C@H](O)[C@H]1O	0.0335	fluorescent, full curve
C[C@]12CCC(=O)C=C1CC[C@@H]1[C@@H]2CC[C@@]2(C)[C@H]1CC[C@]2(C)O	29.85	activator
CCC(C)c1cc([N+](=O)[O-])cc([N+](=O)[O-])c1OC(=O)OC(C)C (stereo unspecified)	61.13	fluorescent, partial curve
O=S1OCC2C(CO1)C1(Cl)C(Cl)=C(Cl)C2(Cl)C1(Cl)Cl (stereo unspecified)	68.52	-
CC(C)(C)CC(C)(C)c1ccc(O)cc1	21.13	partial curve
CC[C@H]1OC(=O)[C@H](C)[C@@H](O[C@H]2C[C@@](C)(OC)[C@@H](O)[C@H](C)O2)[C@H](C)[C@@H](O[C@@H]2O[C@H](C)C[C@H](N(C)C)[C@H]2O)[C@](C)(O)C[C@@H](C)/C(=N\OCOCCOC)[C@H](C)[C@@H](O)[C@]1(C)O	40.43	activator, partial curve, poor fit
Oc1ccc(-c2ccccc2)c(Cl)c1	54.48	rising, partial curve
CCCCCCOc1cc(C)c(O)c(C)c1C	24.63	rising, single point
O=C(O)CCCc1ccc(N(CCCl)CCCl)cc1	63.9	activator, partial curve, poor fit
O=C1C2(Cl)C3(Cl)C4(Cl)C(Cl)(Cl)C5(Cl)C3(Cl)C1(Cl)C5(Cl)C24Cl (stereo unspecified)	35.82	-
Oc1ccc(Cl)cc1C1CCCC1	68.59	-
O=C1[C@H]2CCCC[C@H]2C(=O)N1CCCCN1CCN(c2nsc3ccccc23)CC1	9.439	activator, full curve, poor fit
CC(C)c1nc(CN(C)C(=O)N[C@H](C(=O)N[C@@H](Cc2ccccc2)C[C@H](O)[C@H](Cc2ccccc2)NC(=O)OCc2cncs2)C(C)C)cs1	26.6	fluorescent, partial curve
Cc1c(C)c2c(c(C)c1O)CCC(C)(COc1ccc(CC3SC(=O)NC3=O)cc1)O2 (stereo unspecified)	14.96	fluorescent, partial curve, poor fit
COCCOC(=O)C1=C(C)NC(C)=C(C(=O)OC(C)C)C1c1cccc([N+](=O)[O-])c1 (stereo unspecified)	1.333	activator, full curve, poor fit
OCCN1CCN(CCCN2c3ccccc3Sc3ccc(Cl)cc32)CC1	33.49	single point
C/C=C/C(=O)Oc1c(CCCCCC(C)C)cc([N+](=O)[O-])cc1[N+](=O)[O-]	61.13	fluorescent, partial curve
O=C(Nc1ccccc1)Nc1ccnc(Cl)c1	76.96	rising, partial curve, poor fit
CCN1CN(CC)CN(CC)C1	74.15	activator, single point
CC1=CC(=O)CC(C)(C)C1	28.09	rising, partial curve